Laboratory results published in publication PMC13423814.
Where two headings read alike, the source gives them in different places. These are yes or no findings as the source states them, for the method shown. Binding seen in cells or lysates may run through a third protein. Some binding calls cover weakened binding; strength is not graded here.

The chains behind the UniProt entries cited, without tags or fusion partners.
UniProt P15682: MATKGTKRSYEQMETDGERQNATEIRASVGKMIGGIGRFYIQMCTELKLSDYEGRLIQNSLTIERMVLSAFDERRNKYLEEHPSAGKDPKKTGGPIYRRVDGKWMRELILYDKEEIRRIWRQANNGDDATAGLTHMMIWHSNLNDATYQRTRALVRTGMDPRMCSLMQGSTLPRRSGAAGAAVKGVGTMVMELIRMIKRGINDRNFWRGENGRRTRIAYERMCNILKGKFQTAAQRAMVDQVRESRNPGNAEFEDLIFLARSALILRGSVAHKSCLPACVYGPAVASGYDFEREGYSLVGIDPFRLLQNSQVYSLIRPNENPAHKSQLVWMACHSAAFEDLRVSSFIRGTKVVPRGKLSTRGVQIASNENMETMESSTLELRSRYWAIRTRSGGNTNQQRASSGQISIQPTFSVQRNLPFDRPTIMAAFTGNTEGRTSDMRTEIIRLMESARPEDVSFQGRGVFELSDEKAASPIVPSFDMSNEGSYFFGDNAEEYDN

Tests used:
[1] = biological target: Influenza A virus nucleoprotein (NP), strain A/WSN/33 (H1N1) (influenza A virus A/WSN/33 (H1N1)) (UniProt P15682)
[2] = biological target: WSN NP expressed in HEK293T cells (influenza A virus A/WSN/33 (H1N1)) (UniProt P15682); test: co-IP
[3] = biological target: Influenza A virus nucleoprotein (NP), strain A/WSN/33 (H1N1) (influenza A virus A/WSN/33 (H1N1)) (UniProt P15682); remark: listed apart in the source

B1: KHSRP (protein, UniProt Q92945 1-711)
chain: MSDYSTGGPPPGPPPPAGGGGGAGGAGGGPPPGPPGAGDRGGGGPGGGGPGGGSAGGPSQPPGGGGPGIRKDAFADAVQRARQIAAKIGGDAATTVNNSTPDFGFGGQKRQLEDGDQPESKKLASQGDSISSQLGPIHPPPRTSMTEEYRVPDGMVGLIIGRGGEQINKIQQDSGCKVQISPDSGGLPERSVSLTGAPESVQKAKMMLDDIVSRGRGGPPGQFHDNANGGQNGTVQEIMIPAGKAGLVIGKGGETIKQLQERAGVKMILIQDGSQNTNVDKPLRIIGDPYKVQQACEMVMDILRERDQGGFGDRNEYGSRIGGGIDVPVPRHSVGVVIGRSGEMIKKIQNDAGVRIQFKQDDGTGPEKIAHIMGPPDRCEHAARIINDLLQSLRSGPPGPPGGPGMPPGGRGRGRGQGNWGPPGGEMTFSIPTHKCGLVIGRGGENVKAINQQTGAFVEISRQLPPNGDPNFKLFIIRGSPQQIDHAKQLIEEKIEGPLCPVGPGPGGPGPAGPMGPFNPGPFNQGPPGAPPHAGGPPPHQYPPQGWGNTYPQWQPPAPHDPSKAAAAAADPNAAWAAYYSHYYQQPPGPVPGPAPAPAAPPAQGEPPQPPPTGQSDYTKAWEEYYKKIGQQPQQPGAPPQQDYTKAWEEYYKKQAQVATGGGPGAPPGSQPDYSAAWAEYYRQQAAYYGQTPGPGGPQPPPTQQGQQQAQ
- binding [1]: binds

B2: PSPC1 in HEK293T cells (protein, UniProt Q8WXF1 1-523)
chain: MMLRGNLKQVRIEKNPARLRALESAVGESEPAAAAAMALALAGEPAPPAPAPPEDHPDEEMGFTIDIKSFLKPGEKTYTQRCRLFVGNLPTDITEEDFKRLFERYGEPSEVFINRDRGFGFIRLESRTLAEIAKAELDGTILKSRPLRIRFATHGAALTVKNLSPVVSNELLEQAFSQFGPVEKAVVVVDDRGRATGKGFVEFAAKPPARKALERCGDGAFLLTTTPRPVIVEPMEQFDDEDGLPEKLMQKTQQYHKEREQPPRFAQPGTFEFEYASRWKALDEMEKQQREQVDRNIREAKEKLEAEMEAARHEHQLMLMRQDLMRRQEELRRLEELRNQELQKRKQIQLRHEEEHRRREEEMIRHREQEELRRQQEGFKPNYMENREQEMRMGDMGPRGAINMGDAFSPAPAGNQGPPPMMGMNMNNRATIPGPPMGPGPAMGPEGAANMGTPMMPDNGAVHNDRFPQGPPSQMGSPMGSRTGSETPQAPMSGVGPVSGGPGGFGRGSQGGNFEGPNKRRRY
- binding [2]: binds

B3: hnRNPM (protein, UniProt P52272 1-730)
chain: MAAGVEAAAEVAATEIKMEEESGAPGVPSGNGAPGPKGEGERPAQNEKRKEKNIKRGGNRFEPYANPTKRYRAFITNIPFDVKWQSLKDLVKEKVGEVTYVELLMDAEGKSRGCAVVEFKMEESMKKAAEVLNKHSLSGRPLKVKEDPDGEHARRAMQKVMATTGGMGMGPGGPGMITIPPSILNNPNIPNEIIHALQAGRLGSTVFVANLDYKVGWKKLKEVFSMAGVVVRADILEDKDGKSRGIGTVTFEQSIEAVQAISMFNGQLLFDRPMHVKMDERALPKGDFFPPERPQQLPHGLGGIGMGLGPGGQPIDANHLNKGIGMGNIGPAGMGMEGIGFGINKMGGMEGPFGGGMENMGRFGSGMNMGRINEILSNALKRGEIIAKQGGGGGGGSVPGIERMGPGIDRLGGAGMERMGAGLGHGMDRVGSEIERMGLVMDRMGSVERMGSGIERMGPLGLDHMASSIERMGQTMERIGSGVERMGAGMGFGLERMAAPIDRVGQTIERMGSGVERMGPAIERMGLSMERMVPAGMGAGLERMGPVMDRMATGLERMGANNLERMGLERMGANSLERMGLERMGANSLERMGPAMGPALGAGIERMGLAMGGGGGASFDRAIEMERGNFGGSFAGSFGGAGGHAPGVARKACQIFVRNLPFDFTWKMLKDKFNECGHVLYADIKMENGKSKGCGVVKFESPEVAERACRMMNGMKLSGREIDVRIDRNA
- binding [3]: binds
